Measurements from patent US20240050568A1 (NANJING IASO BIOTECHNOLOGY, published 2024).
Results are given in words; binding and its absence hold for the method and conditions named. Some entries that bind do so weakly or less than the wild type. Where a sequence is shown, tags or fusion partners need not be part of it.

Sequences of proteins named here, by UniProt entry; tags and fusion partners are left off. Residues count along the entry.
UniProt P06127, residues 25-371: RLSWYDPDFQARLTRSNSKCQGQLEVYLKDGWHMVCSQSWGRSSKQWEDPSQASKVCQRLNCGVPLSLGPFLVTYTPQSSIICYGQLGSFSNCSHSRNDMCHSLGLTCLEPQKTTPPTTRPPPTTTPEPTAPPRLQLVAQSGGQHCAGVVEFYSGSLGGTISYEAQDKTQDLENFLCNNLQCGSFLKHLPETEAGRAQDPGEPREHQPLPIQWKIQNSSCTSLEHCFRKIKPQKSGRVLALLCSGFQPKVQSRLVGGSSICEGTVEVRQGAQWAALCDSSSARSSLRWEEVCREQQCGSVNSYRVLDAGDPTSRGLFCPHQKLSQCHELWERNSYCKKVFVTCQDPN

Molecular target: CD5 antigen (epitope competition experiment of Example 1) (UniProt P06127)
Experiment: flow cytometry sandwich: hFc antibody premixed with CD5 antigen, added to FHVH1 CAR-T cells, APC anti-human Fc

binding: binds
B1: FHVH3 antibody with human Fc tag (Fc fusion, not shown: a dimerising Fc or GST)
chain: QVQLVQSGAEVKKPGSSVKVSCKASGGTFSNYAISWVRQAPGQGLEWMGWISAYNGDTKYAQRLQGRVTMTTDTSTSTAYMELRNLRSDDTAVYYCARYESMSGQDIWGQGTLVTVSS
